In this test the test system is MX-1 breast xenograft, intrarenal, nude mice, tumor weight. Description: NCI In Vivo Anticancer Drug Screen. Data for tumor model Human Mammary Carcinoma MX-1 Xenograft (intrarenal inoculation) in NU/NU BALB/C (nude) mice. Particulars: T/C endpoint: mean tumor weight change, higher T/C = larger tumour; for T/C: evaluated on day 11. The procedure, abridged: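 T/C readout: treated-group measurement over vehicle-control measurement, using tumor size or survival in tumor-bearing mice.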
(Xenograft models place foreign cells or tissue in a host animal.)

The mark [1] stands for this setting: dose: 200.0 mg/kg/injection, schedule: Q04DX003 (ip), vehicle: saline with Tween-80.
[2] abbreviates: dose: 400.0 mg/kg/injection, schedule: Q04DX003 (ip), vehicle: saline with Tween-80.
[3] abbreviates: dose: 600.0 mg/kg/injection, schedule: Q04DX003 (ip), vehicle: Klucel (hydroxypropylcellulose) (HPC).

The list shows only some results of the screen, not a fair sample: it gathers tests that were run many times, whatever their T/C, doses with no T/C, and many T/C values between a quarter and a half above the control. Further doses and runs are listed elsewhere. T/C gives the treated animals as a percentage of the vehicle group. Schedule codes are those of the source, taken here to give the interval after Q, in days (D) or hours (H), and the number of doses after X. Some doses were run more than once; their values stand side by side, smallest first. Some T/C values carry the count of animals alive at the toxicity check (mostly the fifth day); without a count, all were alive then. Some entries give survivors of the animals treated and no T/C: the source files T/C as zero there, which appears to mark a toxic dose or a test without result, not a measured value. Counts of survivors are from the toxicity check (mostly the fifth day) where no day follows; animals may have died later.

Consider `CN(Cc1cnc2nc(N)nc(N)c2n1)c1ccc(C(=O)NC(CCC(=O)OCc2cc3c(cc2Cl)OCO3)C(=O)OCc2cc3c(cc2Cl)OCO3)cc1` (configuration not stated), for which the survivor count (dose: 15.0 mg/kg/injection, schedule: Q04DX003 (ip), vehicle: saline with Tween-80) is recorded as 2 of 5 on day 11; the survivor count (dose: 30.0 mg/kg/injection, schedule: Q04DX003 (ip), vehicle: saline with Tween-80) is reported as 0 of 5 on day 11; the survivor count (dose: 60.0 mg/kg/injection, schedule: Q04DX003 (ip), vehicle: saline with Tween-80) was 0 of 5 on day 11.

Regarding `Cc1c(O)/c(=C\O)c2nc3c(=O)ccc(C(=O)NCCN(C)C)c3[nH]c2c1=O`, the survivor count (dose: 400.0 mg/kg/injection, schedule: Q04DX003 (ip), vehicle: other) is listed as 2 of 6 on day 11.

For the compound `Cc1ccc(C(=Nc2ccccc2)N=P(c2ccccc2)(c2ccccc2)c2ccccc2)cc1`, the survivor count under setting [1] is on record as 1 of 6 on day 11 and the survivor count under setting [2] was 0 of 6 on day 11.

Consider `O=C[C@@H](CO)O[C@H](C=O)c1c[nH]c(=O)[nH]c1=O`, for which the T/C (dose: 75.0 mg/kg/injection, schedule: Q04DX003 (ip), vehicle: saline) is 10, 14, 22, 31 % of control. Moreover, the survivor count runs as follows: (dose: 150.0 mg/kg/injection, schedule: Q04DX003 (ip), vehicle: saline) 2 of 6 on day 11; (dose: 300.0 mg/kg/injection, schedule: Q04DX003 (ip), vehicle: saline) 0 of 6 on day 11.

As for `C=C(C)/C([O-])=N/[N+](C)(C)CC(O)CCCCCCCCCCCC` (configuration not stated), the survivor count (dose: 640.0 mg/kg/injection, schedule: Q04DX003 (ip), vehicle: Klucel (hydroxypropylcellulose) (HPC)) is 0 of 6 on day 11.

As to `CC1(O)C=CC(=O)C=C1`, the survivor count (dose: 100.0 mg/kg/injection, schedule: Q04DX003 (ip), vehicle: water) is recorded as 2 of 6 on day 11 and the survivor count (dose: 200.0 mg/kg/injection, schedule: Q04DX003 (ip), vehicle: water) is reported as 0 of 6 on day 11.

As to `CC(=O)C[n+]1ccccc1Sc1ccc(Cl)cc1`, under setting [1], the survivor count is 2 of 6 on day 11.

Regarding `CCC(=O)N(C)[C@@H](C)C(=O)O[C@H]1CC(=O)N(C)c2cc(cc(OC)c2Cl)C/C(C)=C/C=C[C@@H](OC)[C@@]2(O)C[C@H](OC(=O)N2)[C@@H](C)[C@@H]2O[C@@]12C`, the survivor count (dose: 0.12 mg/kg/injection, schedule: Q04DX003 (ip), vehicle: saline + alcohol) is reported as 1 of 6 on day 11; the survivor count (dose: 0.25 mg/kg/injection, schedule: Q04DX003 (ip), vehicle: saline + alcohol) is recorded as 0 of 6 on day 11; the survivor count (dose: 0.5 mg/kg/injection, schedule: Q04DX003 (ip), vehicle: saline + alcohol) is 0 of 6 on day 11; the survivor count (dose: 1.0 mg/kg/injection, schedule: Q04DX003 (ip), vehicle: saline + alcohol) is 0 of 6 on day 11; the survivor count (dose: 1.0 mg/kg/injection, schedule: Q04DX003 (sc), vehicle: saline + alcohol) was 0 of 6 on day 11; the survivor count (dose: 30.0 micrograms/kg/injection, schedule: Q04DX004 (ip), vehicle: saline + alcohol) was 3 of 6 on day 15. Besides, the survivor count (dose: 60.0 micrograms/kg/injection, schedule: Q04DX004 (ip), vehicle: saline + alcohol) was 1 of 6 on day 15.

In the case of `N=C(N)c1ccc(N=Nc2c(O)ccc3cc(O)ccc23)cc1`, the survivor count (dose: 300.0 mg/kg/injection, schedule: Q04DX003 (ip), vehicle: Klucel (hydroxypropylcellulose) (HPC)) is 3 of 6 on day 11; the survivor count under setting [3] is 0 of 6 on day 11 and 2 of 6 on day 11.

Consider `C/C(=N\NC(=S)N1CCN(c2ccccn2)CC1)c1ccccn1`, for which the T/C (dose: 37.5 mg/kg/injection, schedule: Q04DX003 (sc), vehicle: water) is 135 % of control. The survivor count is, setting by setting: (dose: 150.0 mg/kg/injection, schedule: Q04DX003 (sc), vehicle: water) 3 of 6 on day 11; (dose: 300.0 mg/kg/injection, schedule: Q04DX003 (sc), vehicle: water) 0 of 6 on day 11.

With `Cc1cc(O)c2c(c1O)C(=O)C13C(=C2O)C(=O)C2C(O)C1C1C(O)C3C(=O)C3=C(O)c4c(O)cc(C)c(O)c4C(=O)C321` (configuration not stated), the T/C is 129 % of control (dose: 3.12 mg/kg/injection, schedule: Q04DX003 (ip), vehicle: saline with Tween-80) and 133 % of control (dose: 6.25 mg/kg/injection, schedule: Q04DX003 (ip), vehicle: saline with Tween-80).

On to `NC1=NC(=O)N2CC12` (configuration not stated), for which the survivor count (dose: 400.0 mg/kg/injection, schedule: Q04DX003 (sc), vehicle: saline) was 2 of 6 on day 11.

Regarding `COc1ccc2c(c1)CCn1c(C)c(COC(=O)NC(C)C)c(COC(=O)NC(C)C)c1-2`, the survivor count runs as follows: (dose: 150.0 mg/kg/injection, schedule: Q04DX003 (ip), vehicle: distilled water + Tween-80) 1 of 6 on day 11; (dose: 300.0 mg/kg/injection, schedule: Q04DX003 (ip), vehicle: distilled water + Tween-80) 0 of 6 on day 11; (dose: 600.0 mg/kg/injection, schedule: Q04DX003 (ip), vehicle: distilled water + Tween-80) 0 of 6 on day 11.

For `C[C@@]1(CO)[C@H](O)CC[C@@]2(C)[C@H]1CC[C@H]1C[C@@H]3C[C@@]12CC[C@@]3(O)COC(=O)CN`, the survivor count is given as 2 of 6 on day 11 (dose: 200.0 mg/kg/injection, schedule: Q04DX003 (ip), vehicle: saline + alcohol) and 0 of 6 on day 11 (dose: 400.0 mg/kg/injection, schedule: Q04DX003 (ip), vehicle: saline + alcohol).

With `CCN(CC)Cc1cc2[nH]c3c4ccc(Cl)cc4ncc3c2cc1OC`, the T/C (dose: 150.0 mg/kg/injection, schedule: Q04DX003 (sc), vehicle: saline with Tween-80) was 137 % of control [5 of 6 alive on day 11]. Also, the survivor count (dose: 600.0 mg/kg/injection, schedule: Q04DX003 (sc), vehicle: saline with Tween-80) is 0 of 6 on day 11.

For `O=C1C=CC(=CC=C2C=CN(CCCCCCCCCCCO)C=C2)C=C1`, where the note is “dose: 50.0 mg/kg/injection, schedule: Q04DX003 (ip), vehicle: saline with Tween-80”, the T/C was 144 % of control [4 of 6 alive on day 11]. In addition, the survivor count was 0 of 6 on day 11 under setting [1] and 0 of 6 on day 11 under setting [2].

Turning to `NC(=O)C1C=CN(Cc2ccccc2)C=C1`, the survivor count by setting is: under setting [2], 0 of 6 on day 11; (dose: 800.0 mg/kg/injection, schedule: Q04DX003 (ip), vehicle: saline with Tween-80) 0 of 6 on day 11.

As to `O=C(Nc1cccc(O)c1)C(Cl)=C(Cl)Cl`, the survivor count (dose: 50.0 mg/kg/injection, schedule: Q04DX003 (ip), vehicle: other) is given as 0 of 6 on day 11; the survivor count (dose: 100.0 mg/kg/injection, schedule: Q04DX003 (ip), vehicle: DMSO) is given as 0 of 6 on day 11; the survivor count (dose: 100.0 mg/kg/injection, schedule: Q04DX003 (ip), vehicle: other) was 0 of 5 on day 11.

Turning to `CCC1(O)C(=O)OCc2c1cc1n(c2=O)Cc2cc3cc4c(cc3nc2-1)OCO4` (configuration not stated), the survivor count by setting is: (dose: 8.0 mg/kg/injection, schedule: Q04DX003 (ip), vehicle: saline with Tween-80) 0 of 6 on day 11; (dose: 16.0 mg/kg/injection, schedule: Q04DX003 (ip), vehicle: saline with Tween-80) 0 of 6 on day 11; (dose: 32.0 mg/kg/injection, schedule: Q04DX003 (ip), vehicle: saline with Tween-80) 0 of 6 on day 11.

Turning to `O=S(=O)(c1cccc(N=C=S)c1)c1cccc(N=C=S)c1`, the T/C (dose: 25.0 mg/kg/injection, schedule: Q04DX003 (ip), vehicle: Klucel (hydroxypropylcellulose) (HPC)) is 132 % of control.

As to `CCCCCCCC1C(=O)OC2CC3C(C)=CC(=O)C(O)C3(C)C3C4(O)OCC23C1C(C)C4O` (configuration not stated), where the note is “dose: 80.0 mg/kg/injection, schedule: Q04DX003 (ip), vehicle: Klucel (hydroxypropylcellulose) (HPC)”, the survivor count is reported as 0 of 6 on day 11.

For `[N-]=[N+]=CC(=O)CCC(NC(=O)OCc1ccccc1)C(=O)OCc1ccccc1` (configuration not stated), the survivor count is, setting by setting: under setting [3], 3 of 6 on day 11; (dose: 1200.0 mg/kg/injection, schedule: Q04DX003 (ip), vehicle: Klucel (hydroxypropylcellulose) (HPC)) 0 of 6 on day 11.

On to `CN(C)c1ccc2c(Nc3ccc(NS(C)(=O)=O)cc3)c3ccc(N(C)C)cc3nc2c1`, for which the survivor count (dose: 400.0 mg/kg/injection, schedule: Q04DX003 (ip), vehicle: Klucel (hydroxypropylcellulose) (HPC)) is listed as 3 of 6 on day 11 and the survivor count (dose: 800.0 mg/kg/injection, schedule: Q04DX003 (ip), vehicle: Klucel (hydroxypropylcellulose) (HPC)) is reported as 0 of 6 on day 11.

Source of the values: PubChem BioAssay AID298 (DTP/NCI, 2004).
